Results are given in words; binding and its absence hold for the method and conditions named. Binding seen in cells or lysates may run through a third protein. Some entries that bind do so weakly or less than the wild type. Sequences can lack the tags named with a protein.
Biological target: T1, Flag-tagged NONO (UniProt Q15233)
T1 sequence: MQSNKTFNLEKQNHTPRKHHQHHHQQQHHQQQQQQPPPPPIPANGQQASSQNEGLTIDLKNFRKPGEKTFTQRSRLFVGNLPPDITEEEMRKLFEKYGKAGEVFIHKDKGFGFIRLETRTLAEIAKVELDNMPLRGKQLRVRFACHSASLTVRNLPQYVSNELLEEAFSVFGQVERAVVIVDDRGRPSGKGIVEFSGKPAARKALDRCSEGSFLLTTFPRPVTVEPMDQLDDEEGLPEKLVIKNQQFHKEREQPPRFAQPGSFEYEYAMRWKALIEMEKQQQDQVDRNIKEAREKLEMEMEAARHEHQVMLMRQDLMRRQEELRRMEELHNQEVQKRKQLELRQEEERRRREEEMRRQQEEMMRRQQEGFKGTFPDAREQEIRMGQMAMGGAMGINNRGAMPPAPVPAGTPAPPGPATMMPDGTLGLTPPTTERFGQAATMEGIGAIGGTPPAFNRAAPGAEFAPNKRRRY
Test: co-IP; anti-Flag M2 Sepharose beads on lysates of MDA-MB-231 and BT-549 cells overexpressing the Flag-tagged protein; endogenous partner found by blot; IgG as negative control

Chains of the proteins cited; added tags and fusions are not shown.
UniProt P14618: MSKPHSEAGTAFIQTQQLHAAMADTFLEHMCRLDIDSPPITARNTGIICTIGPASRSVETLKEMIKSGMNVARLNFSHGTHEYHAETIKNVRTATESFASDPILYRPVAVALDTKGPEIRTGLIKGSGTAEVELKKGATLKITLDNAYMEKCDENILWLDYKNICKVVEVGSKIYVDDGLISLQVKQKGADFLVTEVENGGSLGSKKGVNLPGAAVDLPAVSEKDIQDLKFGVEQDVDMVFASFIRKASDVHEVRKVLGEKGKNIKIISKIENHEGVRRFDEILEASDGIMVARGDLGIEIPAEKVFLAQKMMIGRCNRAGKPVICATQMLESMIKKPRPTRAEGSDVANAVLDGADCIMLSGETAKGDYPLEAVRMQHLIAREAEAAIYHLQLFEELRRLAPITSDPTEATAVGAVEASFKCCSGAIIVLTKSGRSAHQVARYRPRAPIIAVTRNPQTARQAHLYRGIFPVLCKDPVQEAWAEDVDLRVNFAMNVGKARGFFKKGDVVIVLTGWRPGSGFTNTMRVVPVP

binding: binds
Substance: PKM2 (pyruvate kinase isozyme type M2), endogenous (from UniProt P14618 1-531)

Source: PMC11892261
